Measurements reported in PubChem BioAssay AID504791 (Drosophila RNAi Screening Center, 2011).
In all, the deposit lists about 23,000 reagents; below is an unselected part of those with a known target gene and a result. In the full data, 199 (0.86%) were called active. 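Plate-scaled ratios behind the calls are not deposited; printed light signals are raw; many rows marked increased or decreased are still called inactive.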 Unmarked entries are inactive. Names joined by + are all predicted targets of the reagent.

- Assay: 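Genes of the fly required for silencing by miRNA, siRNA or endo-siRNA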 (primary screen)
- Cell system: Drosophila S2-derived reporter cells
- Reagents: long dsRNA against Drosophila genes, about 150-250 ng dsRNA per well (siRNA assay); about 80-120 ng (miRNA assay)
- Duration: about 5 days (siRNA assay); about 4 days (miRNA assay)
- Conditions: copper sulfate induction of reporters: 25 µM (siRNA assay); 200 mM stated (miRNA assay), 1-2 days before reading
- Read-out: 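Per-well ratio of Renilla over firefly light, expressed relative to that plate's average ratio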
- Scale: siRNA reporter hit score: higher = 3 marks a strong hit with raised ratio; -3 a strong hit with lowered ratio
- Call rule: 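First-pass picks had plate-scaled ratios over 1.5 for the siRNA assay, over 1.6 for the miRNA assay, or under 0.6; two distinct dsRNAs had to score alike on retest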

| gene | amplicon | siRNA reporter hit score | stable siRNA reporter change | miRNA reporter change | stable assay Renilla, run 1 (luminescence) | stable assay firefly, run 1 (luminescence) |
| --- | --- | --- | --- | --- | --- | --- |
| Alp6 | DRSC06710 | – | – | – | 7871 | 4.09e5 |
| qjt | DRSC10060 | – | – | – | 6878 | 3.56e5 |
| Arp2 | DRSC19332 | – | – | – | 5015 | 4.55e5 |
| SdhCL | DRSC16078 | – | – | – | 7386 | 3.57e5 |
| Mst57Da | DRSC16744 | – | – | – | 8675 | 4.16e5 |
| ppk8 | DRSC17269 | – | – | – | 8475 | 3.87e5 |
| Gbeta76C | DRSC11174 | – | reporter ratio raised past the hit cutoff | – | 24170 | 4.44e5 |
| ear | DRSC15675 | – | – | reporter ratio lowered past the hit cutoff (active) | 4451 | 3.25e5 |
| Septin1 | DRSC20573 | – | – | – | 5818 | 4.12e5 |
| Ufd4 | DRSC02871 | – | – | – | 8640 | 3.95e5 |
| Prx6c + CG12896 + Prx6b | DRSC06148 | – | – | – | 5439 | 3.01e5 |
| Prx6c + CG12896 + Prx6b | DRSC28111 | – | – | reporter ratio lowered past the hit cutoff | – | – |
| Prosbeta2 | DRSC11257 | -3 | – | – | 7918 | 2.40e5 |
| l(2)k05911 | DRSC02523 | – | – | – | 3568 | 3.69e5 |
| PAPLA1 | DRSC03095 | – | – | – | 26684 | 5.09e5 |
| PAPLA1 | DRSC03096 | – | – | – | 8022 | 5.18e5 |
| CG32037 | DRSC10363 | – | – | – | 5784 | 3.28e5 |
| CG10953 | DRSC06021 | – | – | – | 6692 | 3.86e5 |
| CG9547 | DRSC03260 | – | – | – | 11536 | 1.40e6 |
| snRNA:U1:95Cc | DRSC13640 | – | – | – | 4067 | 2.91e5 |
| Hsp70Bc | DRSC16053 | – | – | reporter ratio raised past the hit cutoff | 6322 | 4.10e5 |

Continued, starting with the last 2 of the part before.
| gene | amplicon | siRNA reporter hit score | stable siRNA reporter change | miRNA reporter change | stable assay Renilla, run 1 (luminescence) | stable assay firefly, run 1 (luminescence) |
| --- | --- | --- | --- | --- | --- | --- |
| snRNA:U1:95Cc | DRSC13640 | – | – | – | 4067 | 2.91e5 |
| Hsp70Bc | DRSC16053 | – | – | reporter ratio raised past the hit cutoff | 6322 | 4.10e5 |
| mRpS18B | DRSC02107 | – | – | – | 7718 | 2.28e6 |
| CG14326 | DRSC14805 | – | – | – | 8946 | 5.49e5 |
| MFS1 | DRSC04115 | – | – | – | 6475 | 3.61e5 |
| PIG-F | DRSC11069 | – | – | – | 7869 | 3.61e5 |
| CG10035 | DRSC14177 | – | – | – | 6047 | 4.50e5 |
| CG30121 (retired record) | DRSC21481 | – | – | – | 7749 | 4.56e5 |
| CG5846 | DRSC02904 | – | – | – | 7418 | 2.20e5 |
| me31B | DRSC03569 | – | – | – | 36802 | 4.67e5 |
| beat-IIIb | DRSC02435 | – | – | – | 7670 | 4.90e5 |
| CG15537 | DRSC15073 | – | – | – | 7543 | 6.30e5 |
| unc79 | DRSC15746 | – | – | – | 7845 | 3.40e5 |
| CG42353 + CG42354 | DRSC23154 | – | – | – | 4392 | 2.49e5 |
| CG40439 | DRSC22707 | – | – | – | 4163 | 3.34e5 |
